“And” between values parts separate entries of the source, which are not always exact repeats. Identical values can stand only once. The whole screen tested about 580,000 compounds, of which about 6,100 (1.1%) were called active. The shares of active, inactive and inconclusive entries below differ from those in the screen. Calls follow the shape of the dose curve; as a rule, active = well fitted inhibition curve with a large enough effect; inconclusive = small, poorly fitted or top-dose-only effect, or another doubt; inactive = no such curve, though single readings can be large or run the other way. Potencies beside an inconclusive call are fits to weak or partial responses and may not hold up.
Target: Polyunsaturated fatty acid lipoxygenase ALOX12 (Homo sapiens) (UniProt P18054)
Test: Primary qHTS assay for inhibitors of human arachidonate 12S-lipoxygenase (ALOX12): Round 2
Conditions: purified 12hLO, xylenol orange hydroperoxide absorbance; activity change, negative = inhibition: at 108 µM (top of the series) unless noted
In short: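 Purified human 12hLO (150 nM final) in 25 mM Hepes, 0.01% Triton X-100, pH 7.0 was preincubated 15 min at room temperature with compound. Then 40 uM arachidonic acid was added, 30 min. Hydroperoxide was read by Fe-XO absorbance ratio 573/405 nm.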
% is scaled to controls: 0 for no effect and ±100 for the full control effect; potency is read from the fitted curve at half-maximal effect.

Protein sequences, listed by entry. Tags and fused reporters are not part of them. Lines headed by an entry give the natural chain unless they say otherwise; changes in a name come on top.
UniProt P18054: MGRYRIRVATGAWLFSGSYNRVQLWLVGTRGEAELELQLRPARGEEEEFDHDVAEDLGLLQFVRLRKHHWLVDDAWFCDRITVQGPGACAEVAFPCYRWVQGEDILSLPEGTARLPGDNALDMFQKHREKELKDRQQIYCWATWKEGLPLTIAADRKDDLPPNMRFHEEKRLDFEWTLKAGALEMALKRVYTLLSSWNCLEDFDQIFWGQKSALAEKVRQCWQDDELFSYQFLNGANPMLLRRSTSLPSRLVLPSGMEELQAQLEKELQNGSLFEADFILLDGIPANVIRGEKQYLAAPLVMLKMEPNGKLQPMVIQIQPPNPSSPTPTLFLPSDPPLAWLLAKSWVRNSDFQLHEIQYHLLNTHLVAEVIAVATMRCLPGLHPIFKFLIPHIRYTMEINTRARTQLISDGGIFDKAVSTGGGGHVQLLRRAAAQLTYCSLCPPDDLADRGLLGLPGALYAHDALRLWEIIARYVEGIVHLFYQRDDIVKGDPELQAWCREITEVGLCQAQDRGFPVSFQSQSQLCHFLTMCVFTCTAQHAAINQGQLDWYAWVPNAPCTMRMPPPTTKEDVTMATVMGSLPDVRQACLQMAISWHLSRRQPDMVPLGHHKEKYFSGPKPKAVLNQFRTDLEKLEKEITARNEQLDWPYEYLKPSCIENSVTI

SMILES | Potency | activity change, negative = inhibition
CC1=CC(C)(C)NC(=S)N1c1ccc(C)c(C)c1 | inconclusive: 50.1 µM [inhibitor, partial curve, poor fit] | 
Cc1cccc(C)c1NC(=O)COC(=O)c1ccccc1[N+](=O)[O-] |  | inactive: 3.81%
COc1cc(NC(=O)c2cc(-c3cccs3)on2)cc(OC)c1OC |  | inactive: 11%
O=C1CSc2ccc(C(=O)NCCc3ccccc3)cc2N1 | inconclusive: 28.2 µM [inhibitor, single point] | 
COc1cc(C#N)ccc1OC(=O)C1CCN(C(=O)c2ccc(F)cc2)CC1 | inconclusive: 31.6 µM [inhibitor, single point] | 
COCCCn1c(SCC(N)=O)nnc1-c1ccccc1 |  | inactive: 1.68%
O=C(c1ccc(Cn2cccn2)o1)N1CCC2(CCNCC2)CC1 | inconclusive: 15.8 µM [inhibitor, full curve] | 
Nc1ccc(SCc2cccnc2)cc1 | inconclusive: 158 µM [inhibitor, partial curve, poor fit] | 
CCn1c2ccccc2c2cc(CN3CCN(Cc4ccccc4F)CC3)ccc21 | active: 28.2 µM | 
O=C(c1cccc(N2CCCC2=O)c1)N1CCC(Oc2cccc(CN3CCN(c4ccccn4)CC3)c2)CC1 |  | inactive: 11.3%
CC(C)CNC(=O)CSc1nc(-c2ccccc2)[nH]c1S(=O)(=O)c1ccccc1 | inconclusive: 100 µM [inhibitor, single point] | 
CC1CCN(S(=O)(=O)c2ccc(NC(=O)CN3CCCC3)cc2)CC1 | inconclusive: 2 µM [inhibitor, full curve] | 
CCOC(=O)C1CCN(S(=O)(=O)c2ccc(C(C)=O)cc2)CC1 |  | inactive: 12.4%
Cc1cccc(-c2nc(C#N)c(N3CCOCC3)o2)c1 | inconclusive: 141 µM [inhibitor, single point] | 
O=C(O)Cn1cnc2c(OCc3ccccc3)ncnc21 |  | inactive: -18.1%
COc1ccc(S(=O)(=O)n2oc(=O)cc2-c2ccccc2)cc1 | inconclusive: 50.1 µM [inhibitor, partial curve, poor fit] | 
CCCSc1nc2c(c(=O)[nH]c(=O)n2C)n1CC(O)COc1ccccc1 (stereo not drawn) | inconclusive: 141 µM [inhibitor, partial curve, poor fit] and inconclusive: 39.8 µM [inhibitor, partial curve, poor fit] | 
CC(NC(=O)CCc1ncc(-c2ccc(F)cc2F)o1)c1ccc2c(c1)OCO2 (stereo not drawn) |  | inactive: -17.7%
CCOc1ccccc1NC(=O)C(=O)NCCc1sc(-c2cccc(F)c2)nc1C |  | inactive: -37.8%
CCOC(=O)N1CCN(S(=O)(=O)c2ccc(OC)c(Cl)c2Cl)CC1 | inconclusive: 25.1 µM [inhibitor, partial curve, poor fit] | 
CC(Sc1nn(-c2ccc(F)cc2)c(=S)s1)C(=O)c1c(N)n(C)c(=O)n(C)c1=O (stereo not drawn) |  | inactive: -13.1%
COc1ccccc1N1CCN(C(=S)Nc2ccccc2)CC1 | inconclusive: 126 µM [inhibitor, single point] | 

SMILES | Potency | activity change, negative = inhibition
O=C(CCC(=O)N1CCN(c2ccccc2)CC1)Nc1nnc(C2CCCCC2)s1 | inconclusive: 100 µM [inhibitor, partial curve, poor fit] | 
Cc1cccc(N2CCN(c3nc4ccccc4n4cnnc34)CC2)c1C | inconclusive: 89.1 µM [inhibitor, single point] | 
COc1ccc(-c2cc(C(F)(F)F)nc(S(=O)(=O)CCCC(=O)Nc3cccc(O)c3)n2)cc1OC | inactive | 
COc1ccc(Cl)cc1NC(=O)c1cnccn1 | inconclusive: 35.5 µM [inhibitor, partial curve, poor fit] | 
COc1cccc(NC(=O)N2CCC(OC3CCN(S(C)(=O)=O)CC3)CC2)c1 |  | inactive: 3.86%
O=S1(=O)CC(N2CC=CC2)CN1Cc1cn(Cc2cccc(C(F)(F)F)c2)nn1 (stereo not drawn) | inconclusive: 89.1 µM [inhibitor, single point] | 
Cc1ccc(/C=C/C(=O)N(Cc2ccco2)Cc2ccco2)s1 | inconclusive: 28.2 µM [inhibitor, partial curve] | 
Cn1c(=O)c2[nH]c(N3CCN(Cc4ccc(F)cc4)CC3)nc2n(C)c1=O | inconclusive: 89.1 µM [inhibitor, single point] | 
O=C(Cc1cccc(C(F)(F)F)c1)NCCc1ccccn1 |  | inactive: -0.969%
CS(=O)(=O)C1=NSC2=NC(=O)/C(=C\c3cccn3-c3ccc(Cl)cc3)C(=N)N21 | inconclusive: 44.7 µM [inhibitor, partial curve, poor fit] | 
Cc1ccc(S(=O)(=O)N2CCN(C(=O)COC(=O)c3cccnc3Cl)CC2)c(C)c1 | inconclusive: 89.1 µM [inhibitor, single point] | 
CCOC(=O)C(N)C(O)c1ccccc1 (stereo not drawn) | inconclusive: 7.08 µM [inhibitor, partial curve, poor fit] | 
Cc1nn(Cc2ccc(F)cc2)c2sc(C(=O)Nc3ccc(N4CCOCC4)cc3N3CCOCC3)cc12 |  | inactive: 0.237%
O=C(c1cnccn1)N1CC(=O)N2[C@H](C1)[C@@H](c1ccc(Br)cc1)[C@@H]2CO | active: 5.62 µM | 
N[C@H](CSCc1ccccc1)C(=O)Nc1ccc([N+](=O)[O-])cc1 | inconclusive: 70.8 µM [inhibitor, partial curve, poor fit] | 
NC(=O)CCN1CCc2onc(-c3ccccc3F)c2C1 |  | inactive: 46.1%
Cn1cccc1C(=O)N1CC(F)(F)C[C@H]1c1nnc(C2CC2)o1 | inconclusive: 11.2 µM [inhibitor, partial curve, poor fit] | 
NC(=O)c1nsc(C(=O)N(c2cccc(F)c2)C(C(=O)NCc2ccccc2)c2ccc(O)cc2)c1N (stereo not drawn) | inconclusive: 50.1 µM [inhibitor, partial curve, poor fit] | 
O=C(Cn1cccc1-c1nc(-c2ccccc2)no1)Nc1ccc2c(c1)OCCO2 | inconclusive: 50.1 µM [inhibitor, partial curve] | 
COc1ccc(-c2cnc3n[nH]c(-c4ccc(F)cc4C)c3n2)cc1OC | inconclusive: 126 µM [inhibitor, partial curve, poor fit] | 
Cc1ccc(C(=O)CC(SCC(=O)O)c2ccc(Cl)cc2)cc1 (stereo not drawn) | inconclusive: 0.562 µM [inhibitor, full curve, poor fit] | 

Source: PubChem BioAssay AID1671190 (National Center for Advancing Translational Sciences (NCATS), 2021)
